Screening data, single-dose tests

The values are deposited in ChEMBL (CHEMBL3988442, “University of Dundee, Small-Polar-MMV Screening Library” (2021)).

Values are the deposited “Percent Effect”, in %.
The record does not define 0% and 100%; most values in the screen are far below 50% and negative numbers occur (in some assays of this library far below -100).
This is an unselected part of the compounds tested.
Two or more numbers in one place are separate tests of the same structure; such repeats can differ widely.
A dash means the value is not listed here; it may have been measured.

Toxoplasma: 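Assay of Toxoplasma gondii numbers, read through their beta-galactosidase reporter with a colour substrate. Concentration: 10 µM. The record gives no direction; the compounds picked for IC50 retests had high values, so higher reads as fewer parasites. Size under these conditions: about 67,000 compounds, about 260 of them at 50% or above in at least one test.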
T. brucei: 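Whole-parasite assay of Trypanosoma brucei over 72 hours; the read-out is not stated. Concentration: 30 µM. The record gives no direction; compounds that gave an IC50 in retests scored well above the rest, so higher reads as stronger inhibition. Values scatter widely below zero; nearly all retest evidence comes from the higher of the two concentrations used. Size under these conditions: about 64,000 compounds, about 940 of them at 50% or above in at least one test.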
Leishmania in macrophages: 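Cell assay of Leishmania donovani living inside macrophages; the read-out is not stated. Compounds at 30 µM. The record gives no direction; compounds that gave an IC50 in retests scored well above the rest, so higher reads as stronger inhibition. Size under these conditions: about 69,000 compounds, about 1,000 of them at 50% or above in at least one test.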

compound	Toxoplasma	T. brucei	Leishmania in macrophages
O=C(c1ccoc1)N1CCCCC1c1nc[nH]n1 (stereo not drawn)	15.19%	-26.86%	24.92%
CN(Cc1cc(Br)cn1C)C(=O)c1ccon1	14.71%	-10.3%	35.44%
CCCNC(=O)C1CCCN(Cc2ccc(-n3cncn3)c(C)c2)C1 (stereo not drawn)	-7.692%	-30.43%	18.24%
O[C@H]1CN(c2nc(-c3ccccc3)no2)C[C@@H]1N1CCOCC1	7.287%	-22.99%	-19.33%
CC(CCS(C)(=O)=O)NC(=O)NCc1ccc2c(c1)CCC2 (stereo not drawn)	-12.91%	5.429%	20.93%
COCCn1cc(C(=O)NC2CCS(=O)(=O)C2)c2ccccc2c1=O (stereo not drawn)	-8.891%	-14.39%	5.699%
CN1CCCCC1c1ccc(-n2ccnc2)nc1 (stereo not drawn)	-	-	-5.26%
O=C(O)C(F)(F)F.O=C(O)c1cc2c(nc1-c1ccsc1)CCN(C(=O)C1CC1)CC2	-6.742%	-86.02%	6.435%
COc1c(CNC2CCN(c3ncccn3)CC2)c(C)nn1C	-7.246%	-20.05%	36.72%
CC(C)N1CCC(NC(=O)NCCC(=O)NCc2ccccc2)C1 (stereo not drawn)	2.419%	-27.47%	-13.36%
Cc1nc(CC(=O)N2CCCCC2Cn2cccn2)cs1 (stereo not drawn)	-21.68%	-5.482%	4.298%
Nc1nnc(CCCNc2ncnc3c2CCN(C(=O)C2CC2)C3)s1	-0.3245%	-130.7%	3.239%
CCC(Nc1nc(C)nc2onc(C)c12)c1cccs1 (stereo not drawn)	10.65%	-	50.11%
O=C(O)C1c2nc[nH]c2CCN1Cc1cc(-c2ccccc2)no1 (stereo not drawn)	16.43%	-93.02%	-4.469%
CCN1CC(C(=O)N2CC(Oc3ccccc3Cl)C2)CCC1=O (stereo not drawn)	18.63%	-41.2%	-31.45%
O=C(O)C(F)(F)F.[H][C@@]12C[C@@H](C(=O)NC(C)C)C[C@@]1([H])N(Cc1ccc(C)o1)CCO2	7.882%	-6.118%	14.49%
CC(C)S(=O)(=O)N1CCC(Cc2cccc(C(=O)O)c2)C1 (stereo not drawn)	-0.0575%	-22.39%	33.33%
c1cc(COc2ccc(CNC3CCc4ncnn4C3)cc2)ccn1 (stereo not drawn)	23.87%	0.9543%	0.06134%
O=C(O)c1cc2c(c(S(=O)(=O)N(CCCO)c3ccccc3)c1)CCC2	-3.539%	-21.42%	18.14%
CC(C)(C)CN1CC(O)CN(C(=O)c2cccc(C(F)(F)F)c2)CC1=O (stereo not drawn)	-59.36%	-4.351%	4.764%
N[C@@H]1c2ccccc2C2(CCN(C(=O)c3ccc(=O)[nH]c3)CC2)[C@H]1O	8.305%	-4.874%	-5.042%
O=C(c1ccccc1Cl)N1CC[C@H](O)[C@@H](N2CCOCC2)CC1	11.86%	21.2%	16.16% & 11.42%
COc1cc2[nH]c(=O)c(CN3CCC[C@@H]3C(N)=O)cc2c(OC)c1OC	6.837%	12.51%	-73.75%
CC(=O)N1CCC(Cc2cnc(-n3ccnc3)cn2)CC1	-12.51%	-3.793%	4.223% & -8.419%
CC(NCc1c(C(C)C)nn(C)c1N(C)C)C(=O)NC1CCCC1.Cl (stereo not drawn)	-7.344%	-1.599%	18.36%
COC(=O)CC(NC(=O)c1cccc(N2CCCC2=O)c1)c1cccs1 (stereo not drawn)	-5.862%	4.258%	28.61%
COCc1nc(C(=O)N2CCCC2c2ccc(OC)cc2)cs1 (stereo not drawn)	3.69%	14.31%	6.457%
CC(NC1(CNC(=O)NC2CC2)CCOCC1)c1ccccc1 (stereo not drawn)	-0.4369%	-51.7%	-14.32%
Cc1cnc(C)c(-c2cccc(-c3ccn(CCN4CCCC4)n3)c2)n1	7.13%	-19.48%	-11.15%
CN1CCN(C(=O)c2ncn3c2CNS(=O)(=O)c2ccccc2-3)CC1	-15.64%	-	-83.5%
O=C(O)C(F)(F)F.O=C(O)C(F)(F)F.[H][C@]12CCN(C(=O)C(C)C)CC[C@@]1([H])S(=O)(=O)CCN2Cc1cccnc1	15.74%	-49.76%	-3.31%
O=C(CCNc1ncccn1)NCCc1ccc(Cl)s1	1.551%	4.803%	18.53%
CSc1ccccc1C(=O)C1CCCN(Cc2ccccn2)C1 (stereo not drawn)	8.542%	-83.06%	-10.09%
COc1ccc2c(=O)n(CC3CCNC3)ccc2c1OC (stereo not drawn)	4.33%	-14.9%	32.61%
O=C(CCOc1ccccc1F)N1CCOCC1	-6.092%	-26.95%	-44.16%
CC1CCN(CCCNC(=O)c2ccc(N(C)S(C)(=O)=O)cc2Cl)CC1	-0.2951%	-8.752%	19.76%
COC(=O)c1cc(NC(=O)NCC2CCS(=O)(=O)C2)ccc1Cl (stereo not drawn)	-13.2%	4.794%	0.05774%
CCN1CCN(C)C2(CCN(C(=O)CC(F)(F)F)CC2)C1=O	-3.246%	-5.172%	9.922%
COc1cc(C(C)=O)ccc1SCC(=O)Nc1ccc(C)cn1	-4.11%	-35.22%	7.856%
CN1CCN(Cc2cn3c(n2)CN(Cc2ccc(F)cc2)CC3)CC1.O=C(O)C(F)(F)F.O=C(O)C(F)(F)F.O=C(O)C(F)(F)F	-23.81%	2.716%	16.51%
[H][C@@]12C[C@H](C)O[C@]1([H])CCN(C(=O)C1=CCCCC1)C2	6.989%	-12.68%	-4.073%
COc1ccc(-n2ccc(C(=O)N(C)C(C)C3(C)CC3)n2)cc1 (stereo not drawn)	-10.53%	-19.05%	-6.474%
O=C(O)C(F)(F)F.[H][C@@]12COC[C@]1(CN1CCOCC1)CN(S(=O)(=O)CCC)C2	-7.386%	-26.49%	10.47%
COc1ccccc1CN1CCCC2(Cc3ccccc3CNC2=O)C1 (stereo not drawn)	9.041%	-	4.923%
COC(=O)[C@H]1CN(C(=O)NC(C)C)CCN1C(=O)C1CCCCC1	-10.48%	-48.42%	-1.673%
CC(C)CN1CCC(C(=O)NCCNC(=O)c2ccoc2)CC1	-0.4756%	-29.07%	24.07%
COc1cccc(CN2CCC(c3nccn3C(C)C)CC2)c1	6.261%	16.7%	31.01%
OCC1CCCN(Cc2c(C3CCCC3)[nH]c3ncccc23)C1 (stereo not drawn)	6.472%	18.71%	-3.753% & 1.022%
COc1cc(OC)cc(C2NC(=O)CN2Cc2ccc(Br)cc2)c1 (stereo not drawn)	3.745%	-25.05%	5.57%
CC(C)CCCC1CN(C(=O)c2cnc[nH]2)CCO1 (stereo not drawn)	3.838%	-22.03%	-2.121%
COCCN1CCC2(C1)CN(c1ncccn1)C2.O=C(O)C(F)(F)F	-4.124%	-25.23%	25.2%
Cc1nc(C2CCCN(C(=O)c3cnc(C)s3)C2)no1 (stereo not drawn)	-1.391%	-83.01%	3.429%
Cc1ccc(S(=O)(=O)NC[C@H]2OC[C@@H](NCc3ccccc3)[C@@H]2O)cc1	5.907%	-2.057%	25.54%
[H][C@@]12CCCC[C@]1([H])C(=O)N(c1cnn(Cc3cccc(F)c3)c1)C2=O	13.87%	-	-2.504%
COCC(C)(O)CNC(=O)c1cc(-c2ccc(F)cc2)nn1C (stereo not drawn)	-5.582%	-3.793%	25.23%
CCc1nnc2n1CCN(C(=O)Cc1csc(-c3ccco3)n1)C2	-	-16.42%	20.18%
Cc1nnc(NCc2cccnc2N(C)C)c(C#N)c1C	4.2%	33.81%	16.09%
CCN1CCC2(CN(C(=O)N(C)C)CC23CCN(CC2CC2)CC3)C1=O.O=C(O)C(F)(F)F (stereo not drawn)	2.598%	-15.71%	-6.649%
CC(C)COCC1CN(Cc2ccoc2)Cc2ncn(C)c21 (stereo not drawn)	-4.18%	-3.643%	4.409%
CC(=O)Nc1c(C)noc1/C=C\c1ccc(C)c(S(=O)(=O)NC2CC2)c1	-4.023%	-5.33%	5.161%
CC(=O)N1CCc2nnc(C3CCCN3CC3CCCCC3)n2CC1 (stereo not drawn)	1.109%	-13.14%	4.58%
COCCN(Cc1ccncc1)C(=O)CCSCc1ccc(F)cc1	-3.228%	-1.063%	-1.39%
Cc1nc(C2CCCN(C(=O)c3cc(Cl)c[nH]3)C2)sc1C (stereo not drawn)	11.15%	-10.21%	18.63%
O=C(C1CC1)N1CCN(C(=O)C2CC(=O)N(c3ccccc3Br)C2)CC1 (stereo not drawn)	-4.932%	-23.76%	-0.9287%
CC(C)Oc1ncc(C(=O)N2CCC(N(C)C)CC2)cc1Cl	4.932%	99.1%	24.82%
CNc1cc(C)nc(C2CN(Cc3ccc(Cl)cn3)CCO2)c1 (stereo not drawn)	12.54%	20.08%	20.34%
Cc1nc(-c2cccnc2)ncc1C(=O)N1CCC(c2ncc[nH]2)CC1	-0.3078%	-6.545%	18.15% & 25.64%

Some entries from above, unchanged:

compound	Toxoplasma	T. brucei	Leishmania in macrophages
CCN1CCN(C)C2(CCN(C(=O)CC(F)(F)F)CC2)C1=O	-3.246%	-5.172%	9.922%
CC(=O)N1CCC(Cc2cnc(-n3ccnc3)cn2)CC1	-12.51%	-3.793%	4.223% & -8.419%
O=C(O)C1c2nc[nH]c2CCN1Cc1cc(-c2ccccc2)no1 (stereo not drawn)	16.43%	-93.02%	-4.469%
O=C(O)c1cc2c(c(S(=O)(=O)N(CCCO)c3ccccc3)c1)CCC2	-3.539%	-21.42%	18.14%